The values that follow come from US20240175877A1.

Sequences of proteins named here, by UniProt entry; tags and fusion partners are left off. A change or cut given only in a name is not applied to a line headed by its entry.
UniProt Q6PSU2: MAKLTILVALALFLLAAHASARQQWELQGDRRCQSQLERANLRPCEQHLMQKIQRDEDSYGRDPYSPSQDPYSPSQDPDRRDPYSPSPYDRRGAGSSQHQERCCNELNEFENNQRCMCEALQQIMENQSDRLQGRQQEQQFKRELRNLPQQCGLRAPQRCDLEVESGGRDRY

Results are given in words; binding and its absence hold for the method and conditions named. Some binding calls cover weakened binding; strength is not graded here.

The target in the test is Ara h 2 (peanut) (UniProt Q6PSU2). Description: epitope bin summary.

B1: 15FU1P3A6 (antibody, IgG1, V domains shown)
VH: LVESGGGSVPPGGSLRLSCVASGVYFSDWAMNWVRQAPGKGLEWISSISGRGANIYYAESVRGRFTTSRDNSQNTVFLDLTDLTVEDTALYFCAKTPLLTRAFDVWGQGTAVTVSA
VL: DIVMTQSPSTLSASVGDRVTITCRASQSVNTWLAWYQQKPGKAPRLLIYKVSTLESGVPSRFSGSGSGTEFTLTISSLQPDDFATYYCQQYNIDSRYSFGPGTKVEIK
With B1, the binding entry is given as “binds”.
